Reference: patent US20260042810 (published 2026)

Assay: general procedure: Fmoc solid-phase peptide synthesis; Wang resin; HATU/HBTU, HOBt, DIPEA; DIC/HOBt
Settings: whole synthesis

glucagon
crude HPLC purity (HPLC): 50-60% | crude yield (molar yield): 90-95%
